We go through one substance from article PMC6838077.

Sequences of proteins named here, by UniProt entry; tags and fusion partners are left off.
UniProt P19793: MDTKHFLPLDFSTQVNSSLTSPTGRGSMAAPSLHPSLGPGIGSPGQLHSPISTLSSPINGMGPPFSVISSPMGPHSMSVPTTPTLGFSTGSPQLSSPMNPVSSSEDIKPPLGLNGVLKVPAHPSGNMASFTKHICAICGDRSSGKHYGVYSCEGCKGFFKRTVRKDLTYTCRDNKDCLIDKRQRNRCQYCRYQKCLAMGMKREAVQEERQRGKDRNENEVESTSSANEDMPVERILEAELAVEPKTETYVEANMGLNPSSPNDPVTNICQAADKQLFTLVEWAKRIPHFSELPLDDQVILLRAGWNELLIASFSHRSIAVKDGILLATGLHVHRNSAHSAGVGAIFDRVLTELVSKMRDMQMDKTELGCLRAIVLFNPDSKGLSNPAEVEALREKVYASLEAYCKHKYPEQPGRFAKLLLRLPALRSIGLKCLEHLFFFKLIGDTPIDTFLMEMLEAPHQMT

This assay concerns the target RXRA protein (retinoid X receptor alpha), endogenous in HEK293 (human (endogenous in HEK293)) (UniProt P19793). In words: co-IP; endogenous proteins; 2 mg HEK293 whole cell lysate with antibody covalently bound to agarose beads, overnight at 4 C, washed 3X with 1X lysis buffer; normal rabbit IgG as control; Western blot for VCP. (In western blotting, separated proteins are transferred to a membrane and probed.)

Results are given in words; binding and its absence hold for the method and conditions named. Binding seen in cells or lysates may run through a third protein. Some binding calls cover weakened binding; strength is not graded here.

Take “valosin-containing protein (VCP/p97/Cdc48), endogenous in HEK293 (from UniProt P55072 1-806)”: the binding result is “binds”.
